Data taken from patent US20030086928A1, “Compositions associated with complex formation and methods of use thereof” (priority 2000, published 2003).
At least one compound was matched to its structure with a doubt left.

How the values were obtained:
[1] = system: phospho (Ser133) CREB in D5 cells; test: Ser133 phosphorylation of CREB in D5 cells (Western blot / immunofluorescence with antiserum 5322); format: cell-based; conditions: 10 minutes
Method: (§1) D5 cells were grown on glass coverslips and stimulated with forskolin and 3-isobutyl-1-methylxanthine (IBMX) or 12-O-tetradecanoyl phorbol acetate (TPA) for 10 minutes. The cells were methanol-fixed at […] for 5 min followed by three 5 min washes in PBS. Cells were blocked for 30 min with 3% BSA in PBS and donkey serum diluted 1:50. Primary antibodies were diluted in 3% BSA/PBS to 1:2000 for the phospho-CREB specific antibody 5322 or 1:100 (3 μg/ml) for the KID/KIX specific antibody. The cells were incubated with the primary antibodies for 1 hr at RT, followed by 3 washes with PBS and a 1 hr incubation with Biotin-SP-conjugated Donkey anti rabbit IgG diluted 1:200 in 3% BSA/PBS. After 3 washes in PBS, Texas Red conjugated Streptavidin was added at 1:200 dilution in 3% BSA/PBS. After one hour incubation, cells were washed 3 times in PBS and mounted in 90% glycerol/PBS containing 1 mg/ml phenylenediamine.
In addition to cAMP, other stimuli such as the phorbol ester TPA can promote Ser133 phosphorylation of CREB; yet these stimuli are unable to induce target gene activation via CBP, reflecting either a block in CREB:CBP complex formation or in the subsequent recruitment of the transcriptional apparatus. […]

[2] = system: T1, CREB:CBP complexes in D5 cells; test: Immunofluorescence of CREB:CBP complexes in D5 cells with αKK antiserum; format: cell-based; conditions: 10 minutes
T1 construct: endogenous in cells; host or cells: D5 cells (NIH 3T3 with rat somatostatin gene)
Method: as §1
D5 cells were then treated with forskolin or TPA for 10 minutes.

C=C[C@@]1(C)CC(=O)[C@]2(O)[C@@]3(C)[C@@H](O)CCC(C)(C)[C@@H]3[C@H](O)[C@H](OC(C)=O)[C@@]2(C)O1 [forskolin]
accumulation of phospho (Ser133) CREB [1]: induced accumulation of phospho (Ser133) CREB
CREB:CBP complex formation detected with αKK antiserum [2]: promoted the appearance of CREB:CBP complexes
